Assay results reported in publication doi:10.1101/2019.12.20.885392.
No constants are given. Whether binding was seen depends on the method and setting. Binding seen in cells or lysates may run through a third protein. A result given as binding can be weak or reduced; the word gives no strength. Sequences can lack the tags named with a protein.

Sequences of proteins named here, by UniProt entry; tags and fusion partners are left off. A change or cut given only in a name is not applied to a line headed by its entry.
UniProt Q8W4L5: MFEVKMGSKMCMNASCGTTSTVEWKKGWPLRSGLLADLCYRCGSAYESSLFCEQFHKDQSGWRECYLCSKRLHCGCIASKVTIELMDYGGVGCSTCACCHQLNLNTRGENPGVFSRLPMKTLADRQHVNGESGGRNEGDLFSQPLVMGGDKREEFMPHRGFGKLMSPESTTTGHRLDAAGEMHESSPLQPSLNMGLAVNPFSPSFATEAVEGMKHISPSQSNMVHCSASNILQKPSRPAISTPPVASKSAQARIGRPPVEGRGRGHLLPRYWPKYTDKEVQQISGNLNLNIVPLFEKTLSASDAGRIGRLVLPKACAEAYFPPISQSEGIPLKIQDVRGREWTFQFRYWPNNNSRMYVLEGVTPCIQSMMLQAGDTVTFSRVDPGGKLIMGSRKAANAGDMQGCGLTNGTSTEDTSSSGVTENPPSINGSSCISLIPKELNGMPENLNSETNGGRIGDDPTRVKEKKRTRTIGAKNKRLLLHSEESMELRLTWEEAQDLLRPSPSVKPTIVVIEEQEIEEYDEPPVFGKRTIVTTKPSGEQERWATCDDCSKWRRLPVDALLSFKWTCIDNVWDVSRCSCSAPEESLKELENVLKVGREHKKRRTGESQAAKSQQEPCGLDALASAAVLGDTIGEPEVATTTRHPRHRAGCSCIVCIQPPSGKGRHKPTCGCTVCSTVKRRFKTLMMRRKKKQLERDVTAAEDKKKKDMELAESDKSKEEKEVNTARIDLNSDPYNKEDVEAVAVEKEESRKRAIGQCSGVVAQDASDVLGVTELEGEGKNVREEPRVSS

T1: HSI2-LIKE1 (HSL1), BiFC fusion (Arabidopsis thaliana) (UniProt Q5CCK4)
T1 sequence: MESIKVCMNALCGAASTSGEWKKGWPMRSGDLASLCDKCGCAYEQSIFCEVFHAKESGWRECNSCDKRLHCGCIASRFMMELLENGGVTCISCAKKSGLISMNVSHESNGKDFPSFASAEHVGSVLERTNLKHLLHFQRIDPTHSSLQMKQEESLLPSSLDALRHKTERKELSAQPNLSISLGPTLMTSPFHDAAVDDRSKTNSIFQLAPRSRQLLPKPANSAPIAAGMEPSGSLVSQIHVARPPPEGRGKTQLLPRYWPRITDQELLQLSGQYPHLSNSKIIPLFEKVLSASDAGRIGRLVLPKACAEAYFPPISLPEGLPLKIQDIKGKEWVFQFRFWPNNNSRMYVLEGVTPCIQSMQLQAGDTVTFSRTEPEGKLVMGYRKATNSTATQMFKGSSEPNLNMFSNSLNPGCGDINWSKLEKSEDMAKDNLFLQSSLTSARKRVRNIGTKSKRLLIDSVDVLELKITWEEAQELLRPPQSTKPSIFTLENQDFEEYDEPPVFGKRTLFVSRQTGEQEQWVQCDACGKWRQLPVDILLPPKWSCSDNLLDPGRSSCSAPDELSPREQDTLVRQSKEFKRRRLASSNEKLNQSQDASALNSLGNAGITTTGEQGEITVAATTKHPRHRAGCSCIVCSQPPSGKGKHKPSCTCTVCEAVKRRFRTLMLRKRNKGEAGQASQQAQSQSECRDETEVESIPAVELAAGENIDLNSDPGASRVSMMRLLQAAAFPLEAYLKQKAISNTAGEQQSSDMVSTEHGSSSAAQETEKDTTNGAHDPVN


Experiments:
Assay in all cases: split reporter
[1] = target: T1, HSI2-LIKE1 (HSL1), BiFC fusion (Arabidopsis thaliana)
[2] = target: B3 domain of HSI2 (B3_(HSI2)), BiFC fusion (Arabidopsis thaliana)
[3] = target: B3 domain of HSL1 (B3_(HSL1)), BiFC fusion (Arabidopsis thaliana)

| Molecule | binding [1] | binding [2] | binding [3] |
| --- | --- | --- | --- |
| HSI2mB3 (HSI2 with a mutated B3 domain), BiFC fusion (from UniProt Q8W4L5) | binds |  |  |
| LIKE HETEROCHROMATIN PROTEIN1 (LHP1), BiFC fusion (protein, UniProt Q946J8 1-445) MKGASGAVKKKPQVLNEAGEAETAVETVGESRKISGDGGFGSDDGGGGGGGGSGESILREIGDDRPTEDGDEEEEEDEDEDDGGDEEDEEGEGEGGQEERPKLDEGFYEIEAIRRKRVRKGKVQYLIKWRGWPETANTWEPLENLQSIADVIDAFEGSLKPGKPGRKRKRKYAGPHSQMKKKQRLTSTSHDATEKSDSSTSLNNSSLPDIPDPLDLSGSSLLNRDVEAKNAYVSNQVEANSGSVGMARQVRLIDNEKEYDPTLNELRGPVNNSNGAGCSQGGGIGSEGDNVRPNGLLKVYPKELDKNSRFIGAKRRKSGSVKRFKQDGSTSNNHTAPTDQNLTPDLTTLDSFGRIARMGNEYPGVMENCNLSQKTKIEELDITKILKPMSFTASVSDNVQEVLVTFLALRSDGKEALVDNRFLKAHNPHLLIEFYEQHLKYNRTP |  | binds | binds |
